The data set addresses EcoSSB (Escherichia coli) (UniProt P0AGE0). Description: EMSA. The conditions noted are these: EMSA: 20 mM Tris-HCl pH 8.0, 50 mM NaCl, 5% glycerol, 50 µg/ml BSA, 4 °C, 30 min, 1 pmol DNA with 0.2, 2 or 10 pmol SSB in 15 µl; recombinant protein; label: 5'-32P; single-stranded DNA.

Amino acid sequences for entries named in this document (tags omitted). A change or cut given only in a name is not applied to a line headed by its entry.
UniProt P0AGE0: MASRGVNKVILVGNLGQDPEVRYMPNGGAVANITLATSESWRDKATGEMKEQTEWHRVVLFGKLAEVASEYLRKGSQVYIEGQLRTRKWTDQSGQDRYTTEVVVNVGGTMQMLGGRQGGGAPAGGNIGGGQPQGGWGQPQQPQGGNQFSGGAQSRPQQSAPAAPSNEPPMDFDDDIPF

The exact form of at least one protein or probe is not confirmed. At least one verdict rests on a figure or table, not on a statement of the authors.

Consider “GCACTAGTGCGGATAGCCCCGTGTTGTTGTCTGACCCCCGACCCCGACGGCAATGCGGGGCAATCCCCTGGAGGCCTGC [79mer ssDNA]”, for which the binding result is reported as “binds”.

The values are drawn from paper PMC3236198.
